Values from PubChem BioAssay AID602196 (INSERM, 2012)
Assay: 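Modifiers of cisplatin sensitivity in A549 cells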. Cell system: human A549 lung cancer cells. Reagent: siRNA pair against human genes. Timing: 48 h transfection before cisplatin; time from cisplatin to read-out not stated. Treatment: cisplatin at a dose killing half of control-siRNA cells; exact dose and duration not given. Measured: 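Cisplatin cell death as a shift from the 50% death seen with control siRNA; siRNAs toxic or growth-blocking alone scored 0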. Reading the numbers: two-siRNA summed score (-2 to +2): higher = both siRNAs protect from cisplatin killing; -2 means both sensitise; mean protection from cisplatin (shift in death) and protection from cisplatin (shift in death), siRNA C and protection from cisplatin (shift in death), siRNA D: higher = protection from cisplatin killing. Hit rule: 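Each siRNA scores 0 if harmful alone by LDH or WST-1, otherwise +1 if it reduces and -1 if it increases cisplatin killing; a gene is active when both siRNAs agree (sum +2 or -2)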. Meaning of the calls: active = both siRNAs shift cisplatin killing the same way; inactive = no consistent shift, or siRNA harmful alone.
In all, the deposit lists about 23,000 reagents; below is an unselected part. 455 of all reagents (2%) count as active. 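Active includes both protection and sensitisation; some change values fall well beyond the stated -50 to +50 range.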 Unmarked entries are inactive. The numbers tell different reagents against one gene apart. No sequences are given here. The record does not give: the amount of reagent.

gene knocked down	reagent no.	two-siRNA summed score (-2 to +2)	mean protection from cisplatin (shift in death) (%)	protection from cisplatin (shift in death), siRNA C (%)	protection from cisplatin (shift in death), siRNA D (%)
GCDH	1	1	17.9	26.3	9.4
IQCF1	1	0	3	8.2	-2.1
TXNL4A	1	-1	-7.5	5	-20
SNORC	1	0	9.9	4.2	15.6
STEEP1	1	0	10.5	11.4	9.5
KIAA0888	1	0	3.6	-6.6	13.8
LOC401570	1	1	13.9	19.6	8.3
CNTF	1	-1	-5.8	-8.1	-3.6
CLEC4M	1	1	11.7	10.9	12.5
SLC12A1	1	0	-4.2	-5.6	-2.7
LOC440087	1	0	-2.2	-5.9	1.5
ISLR	1	-1	-9.1	-19.4	1.3
RBM33	1	0	-1.9	1.9	-5.7
RBM33	2	0	6.3	9.9	2.7
LOC441599	1	1	7.8	3.1	12.4
MCM3	1	0	10.2	21.3	-0.9
LOC440094	1	0	15.8	0.8	30.7
ITGB6	1	-1	-29.3	-23.9	-34.6
CD320	1	0	12.9	16.2	9.5
CDKAL1	1	1	10.4	-0.4	21.2
NET1	1	0	2	8.6	-4.7
ARHGAP27P2	1	1	9.3	8.9	9.7
HLA-DRB1	1	0	8.1	10.1	6
FLJ32810	1	0	2.8	5.8	-0.2
CFHR1	1	0	27	11.2	42.8
CFAP69	1	-1	-4.2	10.1	-18.5
OR10AD1	1	0	-0.4	-10.2	9.4
BARHL1	1	0	-1.7	-7.9	4.5
LINC02914	1	0	-0.2	1	-1.4
F2RL1	1	0	-9.4	-12.2	-6.6
UBE3D	1	0	9.8	5.6	14.1
LOC401121	1	0	-1.2	0.6	-3
YKT6	1	1	15.8	21.7	9.9
LRCH3	1	0	-2.8	-6	0.4
SLC30A7	1	0	2.4	0.4	4.3
OSCAR	1	0	-5	-5.8	-4.1
ATOH8	1	1	11	14.4	7.5
EPB41L1	1	0	-10.9	-11.9	-9.8
KLF7	1	-1	-10.6	9.7	-30.8
ASPA	1	1	13.8	19.1	8.5
CYP51A1	1	0	9.6	11.7	7.4
INHBE	1	0	10.4	3	17.7
RNF122	1	1	-1.7	-20	16.6
GBA2	1	0	-7.5	-9.6	-5.4
KIR2DL2	1	0	14.5	8.5	20.4
TAS1R3	1	0	16.2	23.8	8.6
AOC1	1	0	0	15.7	-15.7
LOC440779	1	0	11.7	14	9.4
MRPS12	1	0	1.8	-0.5	4.1
ZBTB39	1	0	-4.3	1.8	-10.4
MTHFD1	1	-1	-12	3.5	-27.5
LINC00654	1	0	29.7	11.7	47.6
PTGES2	1	0	-0.6	2.2	-3.4
LOC442375	1	0	0.2	4.7	-4.3
PTGFR	1	1	5.2	-9.4	19.7
TUBA4B	1	0	22.9	20.5	25.3
IFNA7	1	0	12.6	16.7	8.6

A run of entries taken from the entries so far:
gene knocked down	reagent no.	two-siRNA summed score (-2 to +2)	mean protection from cisplatin (shift in death) (%)	protection from cisplatin (shift in death), siRNA C (%)	protection from cisplatin (shift in death), siRNA D (%)
SLC12A1	1	0	-4.2	-5.6	-2.7
LOC440087	1	0	-2.2	-5.9	1.5
ISLR	1	-1	-9.1	-19.4	1.3
RBM33	1	0	-1.9	1.9	-5.7
RBM33	2	0	6.3	9.9	2.7
LOC441599	1	1	7.8	3.1	12.4
MCM3	1	0	10.2	21.3	-0.9
LOC440094	1	0	15.8	0.8	30.7
